# Test results: paper PMC12526889
# These are yes or no findings as the source states them, for the method shown. For some of these results: In cells and extracts the contact can be indirect. Where a sequence is shown, tags or fusion partners need not be part of it. Some entries that bind do so weakly or less than the wild type.
# T1: CENP-S (Arabidopsis), two-hybrid fusion (Arabidopsis thaliana) (UniProt Q9FI55)
# T1 sequence: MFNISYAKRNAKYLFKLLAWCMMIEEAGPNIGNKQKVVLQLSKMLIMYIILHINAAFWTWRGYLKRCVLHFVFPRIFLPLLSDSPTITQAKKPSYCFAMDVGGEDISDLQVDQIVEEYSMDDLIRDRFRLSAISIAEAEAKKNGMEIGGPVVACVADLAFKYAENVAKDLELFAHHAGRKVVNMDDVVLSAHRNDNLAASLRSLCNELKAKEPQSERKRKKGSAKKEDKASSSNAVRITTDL
# T2: MIS12 (Arabidopsis), two-hybrid fusion (Arabidopsis thaliana) (UniProt Q2V0Z5)
# T2 sequence: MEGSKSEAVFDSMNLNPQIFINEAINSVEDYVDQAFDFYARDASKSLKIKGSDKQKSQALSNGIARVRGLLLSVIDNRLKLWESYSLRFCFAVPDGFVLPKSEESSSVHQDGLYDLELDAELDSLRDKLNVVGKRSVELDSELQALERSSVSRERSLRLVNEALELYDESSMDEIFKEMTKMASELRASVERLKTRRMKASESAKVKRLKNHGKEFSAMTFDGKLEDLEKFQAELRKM
# T3: NDC80 (Arabidopsis), two-hybrid fusion (Arabidopsis thaliana) (UniProt Q9M1G5)
# T3 sequence: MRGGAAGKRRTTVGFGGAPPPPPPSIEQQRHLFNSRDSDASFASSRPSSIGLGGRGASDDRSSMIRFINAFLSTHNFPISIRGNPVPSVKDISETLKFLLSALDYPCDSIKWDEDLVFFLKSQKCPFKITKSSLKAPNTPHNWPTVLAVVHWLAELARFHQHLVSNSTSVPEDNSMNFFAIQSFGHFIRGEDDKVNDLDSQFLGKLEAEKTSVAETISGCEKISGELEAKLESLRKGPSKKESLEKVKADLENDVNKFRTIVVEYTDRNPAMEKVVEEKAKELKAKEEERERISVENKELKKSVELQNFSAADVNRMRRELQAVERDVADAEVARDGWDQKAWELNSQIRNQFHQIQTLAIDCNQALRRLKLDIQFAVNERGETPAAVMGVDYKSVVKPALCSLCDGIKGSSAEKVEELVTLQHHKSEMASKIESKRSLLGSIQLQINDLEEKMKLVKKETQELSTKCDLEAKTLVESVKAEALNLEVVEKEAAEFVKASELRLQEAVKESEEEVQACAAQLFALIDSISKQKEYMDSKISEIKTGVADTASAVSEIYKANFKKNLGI
# T4: NUF2 (Arabidopsis), two-hybrid fusion (Arabidopsis thaliana) (UniProt Q8RXJ0)
# T4 sequence: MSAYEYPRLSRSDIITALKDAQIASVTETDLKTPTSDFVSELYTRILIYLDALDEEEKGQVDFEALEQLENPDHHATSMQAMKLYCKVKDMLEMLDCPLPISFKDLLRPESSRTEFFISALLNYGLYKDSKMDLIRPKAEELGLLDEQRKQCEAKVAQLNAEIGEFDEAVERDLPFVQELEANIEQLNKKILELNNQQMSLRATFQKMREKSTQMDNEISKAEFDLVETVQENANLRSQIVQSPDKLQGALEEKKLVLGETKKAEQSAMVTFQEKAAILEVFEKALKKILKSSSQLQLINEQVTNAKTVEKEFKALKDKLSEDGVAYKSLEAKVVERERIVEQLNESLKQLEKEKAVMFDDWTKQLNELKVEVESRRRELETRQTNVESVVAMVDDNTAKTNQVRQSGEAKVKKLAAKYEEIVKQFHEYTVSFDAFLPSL
# T5: NDC80 (BiFC fusion) (Arabidopsis thaliana) (UniProt Q9M1G5)
# T5 sequence: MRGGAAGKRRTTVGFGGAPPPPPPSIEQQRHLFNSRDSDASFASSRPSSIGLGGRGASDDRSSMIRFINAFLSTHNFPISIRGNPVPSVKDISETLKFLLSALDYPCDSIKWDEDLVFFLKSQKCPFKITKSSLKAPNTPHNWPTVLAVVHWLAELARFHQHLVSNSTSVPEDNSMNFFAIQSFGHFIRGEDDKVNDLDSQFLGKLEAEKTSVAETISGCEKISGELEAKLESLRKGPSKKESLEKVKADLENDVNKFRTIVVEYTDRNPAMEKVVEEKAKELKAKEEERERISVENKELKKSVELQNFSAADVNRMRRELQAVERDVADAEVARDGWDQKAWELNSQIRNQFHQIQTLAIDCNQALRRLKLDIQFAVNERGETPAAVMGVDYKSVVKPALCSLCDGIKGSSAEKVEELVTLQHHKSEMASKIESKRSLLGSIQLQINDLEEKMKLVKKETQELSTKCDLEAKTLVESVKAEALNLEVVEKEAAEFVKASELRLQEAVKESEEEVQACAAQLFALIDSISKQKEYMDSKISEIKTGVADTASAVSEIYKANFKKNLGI
# Key:
# [1] = biological target: T1, CENP-S (Arabidopsis), two-hybrid fusion (Arabidopsis thaliana); experiment: two-hybrid; GAL4 DNA-BD (pGBT9-GW) and AD (pGAD424-GW) fusions in yeast AH109; growth on -TLH (moderately selective) and -TLHA (severely selective) media, 30 °C, 3 days; BD constructs of CENP-C, SPC24.1, DSN1 and ZWINT1.1 self-activated
# [2] = biological target: T2, MIS12 (Arabidopsis), two-hybrid fusion (Arabidopsis thaliana); experiment: as above
# [3] = biological target: T3, NDC80 (Arabidopsis), two-hybrid fusion (Arabidopsis thaliana); experiment: as above
# [4] = biological target: T4, NUF2 (Arabidopsis), two-hybrid fusion (Arabidopsis thaliana); experiment: as above
# [5] = biological target: MPS1 (Arabidopsis), two-hybrid fusion (Arabidopsis thaliana) (UniProt Q84VX4); experiment: as above
# [6] = biological target: T5, NDC80 (BiFC fusion) (Arabidopsis thaliana); experiment: split reporter; BiFC: fusions to the N-terminal and C-terminal fragments of YFP coinfiltrated with p19 into N. benthamiana leaves; confocal imaging 3 days after inoculation
binder,measurement,setting,value
"CENP-X (Arabidopsis), two-hybrid fusion (protein, UniProt Q8L7N3 1-104) MDANNTFDSDLIHAIFKHIWARRFRERERSDAIDATEAEVALGTTKKNRLASANANALKLSCELLKSFVSEAVQRAAIIAEAEGMEKIEATHLERILPQLLLDF",binding,[1],binds
"NDC80 (Arabidopsis), two-hybrid fusion (protein, UniProt Q9M1G5 1-568) MRGGAAGKRRTTVGFGGAPPPPPPSIEQQRHLFNSRDSDASFASSRPSSIGLGGRGASDDRSSMIRFINAFLSTHNFPISIRGNPVPSVKDISETLKFLLSALDYPCDSIKWDEDLVFFLKSQKCPFKITKSSLKAPNTPHNWPTVLAVVHWLAELARFHQHLVSNSTSVPEDNSMNFFAIQSFGHFIRGEDDKVNDLDSQFLGKLEAEKTSVAETISGCEKISGELEAKLESLRKGPSKKESLEKVKADLENDVNKFRTIVVEYTDRNPAMEKVVEEKAKELKAKEEERERISVENKELKKSVELQNFSAADVNRMRRELQAVERDVADAEVARDGWDQKAWELNSQIRNQFHQIQTLAIDCNQALRRLKLDIQFAVNERGETPAAVMGVDYKSVVKPALCSLCDGIKGSSAEKVEELVTLQHHKSEMASKIESKRSLLGSIQLQINDLEEKMKLVKKETQELSTKCDLEAKTLVESVKAEALNLEVVEKEAAEFVKASELRLQEAVKESEEEVQACAAQLFALIDSISKQKEYMDSKISEIKTGVADTASAVSEIYKANFKKNLGI",binding,[2],binds
same,binding,[3],binds
"NUF2 (Arabidopsis), two-hybrid fusion (protein, UniProt Q8RXJ0 1-440) MSAYEYPRLSRSDIITALKDAQIASVTETDLKTPTSDFVSELYTRILIYLDALDEEEKGQVDFEALEQLENPDHHATSMQAMKLYCKVKDMLEMLDCPLPISFKDLLRPESSRTEFFISALLNYGLYKDSKMDLIRPKAEELGLLDEQRKQCEAKVAQLNAEIGEFDEAVERDLPFVQELEANIEQLNKKILELNNQQMSLRATFQKMREKSTQMDNEISKAEFDLVETVQENANLRSQIVQSPDKLQGALEEKKLVLGETKKAEQSAMVTFQEKAAILEVFEKALKKILKSSSQLQLINEQVTNAKTVEKEFKALKDKLSEDGVAYKSLEAKVVERERIVEQLNESLKQLEKEKAVMFDDWTKQLNELKVEVESRRRELETRQTNVESVVAMVDDNTAKTNQVRQSGEAKVKKLAAKYEEIVKQFHEYTVSFDAFLPSL",binding,[4],binds
"MIS12 (Arabidopsis), two-hybrid fusion (protein, UniProt Q2V0Z5 1-238) MEGSKSEAVFDSMNLNPQIFINEAINSVEDYVDQAFDFYARDASKSLKIKGSDKQKSQALSNGIARVRGLLLSVIDNRLKLWESYSLRFCFAVPDGFVLPKSEESSSVHQDGLYDLELDAELDSLRDKLNVVGKRSVELDSELQALERSSVSRERSLRLVNEALELYDESSMDEIFKEMTKMASELRASVERLKTRRMKASESAKVKRLKNHGKEFSAMTFDGKLEDLEKFQAELRKM",binding,[2],binds
"MAD1 (Arabidopsis), two-hybrid fusion (protein, UniProt Q9LTY1 1-726) MILRTPQPKRLRSDAGESPFPTGATGSGNQLIIYEDSPLPAPAPLQTSHDHSADQHLCTYQCRQMVKADVLDALSTAEKQVEESKTKLQTLNANFTEADAERKHFRDKFLYSEQELAAAKAREKMLQEQLLMEINNSQERYTKELQSCHELEVKLQNEMNLRKKAESSAATAEEKAKLLEDKLTQLSGSVDREKKRLNNDIAQLGKEAKLSVARIGADLERMQCRAQNAETESNLLRSQLEHLKLIFDECLQEKTEVDKKLSSFTSEAASSSDNSVLVKHLQEELKRYEAEVREARKLKSRHLDAELLNVNLLEEQSRRERAESELSKFHDLQLSMEKLENELSSWKSLLNDIPGVSCPDDIVMRFSVLQNEVVQSTMKIGEASTRIKQLEETLEAIQLGRQNAVSEAALAKEKSEALKTDVKRIEVMLTLVTEEKEQLKAVVNELRKSNSEGSVSGAADGALIQGFESSLAKKENYIKDLEQDLNQLKDVNNRQRTEIELLNEKLVDEARRNKSLERDSDRLRSEISLLESKLGHGDYSAANTRVLRMVNTLGVENEAKQTIEALQAELQKTKERLQAVEELKSQSGDAGKLVDSHITGKIAQLKEQNATLEKREERYKTVFADRISVFRRACCELFGYKIVMDEHQRPNGIPVTRFTLQSIYAQSDDEKLEFEYESGNTSILNNEYASQGDIAKQIEIFIRKFNSIPAFTANLTMESFNRRTLY",binding,[4],binds
same,binding,[3],binds
"MPS1 (Arabidopsis), two-hybrid fusion (enzyme, UniProt Q84VX4 1-777) MDREDNLPVQPDKPPKSLVRPILNLETTSSSSSSSSSSPELLRHLQAAFKRHRPLSKMQTTSIGPRRSVAPQRQASRNTRLVTAEGQRSQDVVTLSQSLAANTLTQDTTNNLAITSVAGESASITQPTVSEHFNPSDRQMDFGKSAVTSLESNLDVQRKSQSLIGTSQDMEWDATNQAEASHLDACIGSKHQNLPSVDSEVSLKSEYKDSSSLAKIQGQLGEFPNFLNQPRTRCSAVGSSWATTTLIHSSSAPMLNATTHVSRSYVEADSNANPHAVQSQGNLPSCCPSSKVSNILHPNKDATASEMPASTNDPEVRVKETDTSKQQQITTGLEAPVGSSIYGSDGQANARLPEELHTSVSSQPQKSDKHEKVASSKGPSAPRKRNYDPDLFFKVNGKLYQRLGKIGSGGSSEVHKVISSDCTIYALKKIKLKGRDYATAYGFCQEIGYLKKLKGKTNIIQLIDYEVTDKTLLQEVLNGTMSNKDGRVKEDGFIYMVLEYGEIDLAHMLSQKWREIEGSDRTIDENWLRFYWQQILQAVNTIHEERIVHSDLKPANFLLVRGFLKLIDFGIAKAINSDTTNIQRDSQVGTLSYMSPEAFMCNESDENGNTIKCGRPSDIWSLGCILYQMVYGRTPFADYKTFWAKFKVITDPNHEITYNQLSNPWLIDLMKKCLAWDRNQRWRIPELLQHPFLAPPIPHEPQVKTIKLFSLIAESCGSDDDKANSMISQLEQLLSNPAPLPRNDVLDSRDQNQQLLSRVSELCIQLQDRLQGLEGEN",binding,[5],binds
same,binding,[3],no binding
"MPS1 (BiFC fusion) (enzyme, UniProt Q84VX4 1-777) MDREDNLPVQPDKPPKSLVRPILNLETTSSSSSSSSSSPELLRHLQAAFKRHRPLSKMQTTSIGPRRSVAPQRQASRNTRLVTAEGQRSQDVVTLSQSLAANTLTQDTTNNLAITSVAGESASITQPTVSEHFNPSDRQMDFGKSAVTSLESNLDVQRKSQSLIGTSQDMEWDATNQAEASHLDACIGSKHQNLPSVDSEVSLKSEYKDSSSLAKIQGQLGEFPNFLNQPRTRCSAVGSSWATTTLIHSSSAPMLNATTHVSRSYVEADSNANPHAVQSQGNLPSCCPSSKVSNILHPNKDATASEMPASTNDPEVRVKETDTSKQQQITTGLEAPVGSSIYGSDGQANARLPEELHTSVSSQPQKSDKHEKVASSKGPSAPRKRNYDPDLFFKVNGKLYQRLGKIGSGGSSEVHKVISSDCTIYALKKIKLKGRDYATAYGFCQEIGYLKKLKGKTNIIQLIDYEVTDKTLLQEVLNGTMSNKDGRVKEDGFIYMVLEYGEIDLAHMLSQKWREIEGSDRTIDENWLRFYWQQILQAVNTIHEERIVHSDLKPANFLLVRGFLKLIDFGIAKAINSDTTNIQRDSQVGTLSYMSPEAFMCNESDENGNTIKCGRPSDIWSLGCILYQMVYGRTPFADYKTFWAKFKVITDPNHEITYNQLSNPWLIDLMKKCLAWDRNQRWRIPELLQHPFLAPPIPHEPQVKTIKLFSLIAESCGSDDDKANSMISQLEQLLSNPAPLPRNDVLDSRDQNQQLLSRVSELCIQLQDRLQGLEGEN",binding,[6],no binding
